# Test results reported in PubChem BioAssay AID445 (National Center for Advancing Translational Sciences (NCATS), 2006).
# Some of the results follow. Shown are side measurements of this screen, not its main read-out; they come without a call. The list favours compounds with an active or inconclusive main result. Words in brackets tell the shape of the fitted curve; partial curves, single points and poor fits give uncertain potencies.
# Assay: IkB Signaling
# Details: ABC-DLBCL IkBa-CBG/CBR dual luciferase ratio (green luciferase fused to IkBa over red control in OCI-Ly3 lymphoma cells), 4 h
# Procedure, shortened: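 Luminescence ratio of IκBα-fused green versus native red beetle luciferase in OCI-Ly3 cells, 4 h post-doxycycline with compound; red signal alone, scaled from basal (0%) to zero light (-100%), flagged nonspecific or cytotoxic effects.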
# [1] = measured here: control luc red channel unless noted
compound,measurement,setting,value
CCN1CCN(c2csc3ccc(F)cc3c2=O)CC1,AC50,[1],"15.8 µM [falling, single point]"
CCn1c(/C(C#N)=C(\O)CCc2ccccc2)nc2ccccc21,AC50,[1],"20 µM [falling, partial curve]"
O=C(Nc1nc(-c2cccs2)c(-c2ccccc2)s1)c1ccco1,AC50,[1],"25.1 µM [falling, partial curve]"
Cc1cccc(N(CC(N)=O)C2SC(=O)N(c3ccccc3)C2=O)c1 (stereo not drawn),AC50,[1],"0.794 µM [falling, full curve, poor fit]"
Cc1cccn2c(=O)cc(CSc3nnc(NC(=O)COc4ccc(F)cc4)s3)nc12,AC50,[1],"2.51 µM [falling, full curve]"
O=c1c2ccccc2cnn1-c1nc2ccccc2s1,AC50,[1],"0.00794 µM [falling, full curve]"
O=C(NCc1ccc2c(c1)OCO2)c1ccc(CS(=O)(=O)c2ccc(Br)cc2)o1,AC50,[1],"10 µM [falling, partial curve]"
O=C(Cc1ccccc1)N(Cc1cccnc1)c1nc2ccc(Cl)cc2s1,AC50,[1],"25.1 µM [falling, single point]"
CCn1c(COc2ccccc2C)nnc1SCC(=O)CC(=O)Nc1ccccc1,AC50,[1],"31.6 µM [falling, partial curve]"
Cc1ccc(CC2CC(=O)N(CCc3ccc4c(c3)OCO4)C2=O)cc1 (stereo not drawn),AC50,[1],"15.8 µM [falling, partial curve]"
CCOC(=O)c1c(C)oc2ncnc(N3CCN(c4ccc(C)cc4C)CC3)c12,AC50,[1],"20 µM [falling, single point]"
Cn1c(=O)c2c(nc(Oc3ccc(C#N)cc3)n2Cc2ccc(Cl)cc2Cl)n(C)c1=O,AC50,[1],"0.316 µM [falling, full curve, poor fit]"
COc1ccccc1N1CCN(C(=O)c2c(-c3c(Cl)cccc3Cl)noc2C)CC1,AC50,[1],"20 µM [falling, partial curve]"
CCOC(=O)c1ccccc1NC(=O)Cn1c(=O)n(CCC(=O)NCc2ccccc2OC)c(=O)c2ccccc21,AC50,[1],"10 µM [falling, partial curve]"
Cc1ccc(CNC(=O)c2oc3ccc(S(=O)(=O)N4CCC(C)CC4)cc3c2C)cc1,AC50,[1],"7.94 µM [falling, full curve]"
CCCCNC(=O)c1cc2c(=O)n3cccc(C)c3nc2s1,AC50,[1],"1.26 µM [rising, full curve]"
Cc1cccc(N2CCN(C(=O)c3cc4n(n3)C(C(F)(F)F)CC(c3ccco3)N4)CC2)c1C (stereo not drawn),AC50,[1],"25.1 µM [falling, partial curve]"
Cc1ccccc1NC(=O)CSc1nc2ccc(NC(=O)c3ccccc3)cc2s1,AC50,[1],"12.6 µM [falling, partial curve]"
Cc1nc(NC(=O)c2ccco2)sc1C(=O)Nc1ccc(Br)cc1,AC50,measured here: IkB-luc green channel,"31.6 µM [falling, partial curve]"
same,AC50,measured here: control luc red channel,"20 µM [falling, partial curve]"
Cc1ccccc1CN1C(=O)C(O)(CC(=O)c2ccccc2)c2cc(Cl)ccc21 (stereo not drawn),AC50,[1],"39.8 µM [falling, single point]"
Cc1oc(-c2ccc(C(=O)NCc3ccc(F)cc3)cc2)nc1CS(=O)c1ccccc1 (stereo not drawn),AC50,[1],"20 µM [falling, partial curve]"
CC(=O)c1cc2c(cc1N/C(=N/S(=O)(=O)c1ccccc1)c1ccc(Cl)cc1)OCO2,AC50,[1],"0.00794 µM [rising, full curve]"
O=C(Nc1cccc(-c2nc3ncccc3o2)c1)c1cc2ccccc2o1,AC50,[1],"3.98 µM [falling, full curve]"
C=CCn1c(COc2ccc(CC)cc2)nnc1SC/C(O)=C(\C#N)c1nc2ccccc2[nH]1,AC50,[1],"2 µM [falling, full curve]"
Cc1cc(C)cc(C(=O)Nc2c(C(=O)Nc3ccccc3F)oc3ccccc23)c1,AC50,[1],"0.0794 µM [rising, full curve, poor fit]"
COc1ccccc1OCCn1c(C(C)Oc2ccccc2)nc2ccccc21 (stereo not drawn),AC50,[1],"15.8 µM [falling, partial curve]"
COc1ccc2[nH]c3c(=O)n(CCCCC(=O)NCCN4CCCC4)c(=S)[nH]c3c2c1,AC50,[1],"12.6 µM [falling, partial curve]"
Cc1ccc(-n2ccnc(NCCc3ccc(S(N)(=O)=O)cc3)c2=O)c(C)c1,AC50,[1],"25.1 µM [falling, single point]"
Cc1ccc(N2CCN(S(=O)(=O)c3ccc4oc(=O)c5ncn(C)c5c4c3)CC2)c(C)c1,AC50,[1],"10 µM [falling, partial curve]"
CCOCCCNC(=O)Nc1cc(C(=O)NCc2ccc(C(C)C)cc2)ccc1N1CCCC1,AC50,[1],"12.6 µM [falling, partial curve]"
COc1cc2c(cc1OC)C(COc1ccc(F)cc1)N(C(=O)c1ccccc1F)CC2 (stereo not drawn),AC50,[1],"39.8 µM [falling, single point]"
Cc1cccc(-c2nnc(SCC(=O)N3CCCc4ccccc43)o2)c1,AC50,[1],"39.8 µM [falling, single point]"

# Another view of part of the listing above:
compound | measurement | setting | value
Cc1nc(NC(=O)c2ccco2)sc1C(=O)Nc1ccc(Br)cc1 | AC50 | measured here: IkB-luc green channel | 31.6 µM [falling, partial curve]
same | AC50 | measured here: control luc red channel | 20 µM [falling, partial curve]
Cc1ccccc1CN1C(=O)C(O)(CC(=O)c2ccccc2)c2cc(Cl)ccc21 (stereo not drawn) | AC50 | [1] | 39.8 µM [falling, single point]
